Source: paper PMC11600598

Protein sequences, listed by entry. Tags and fused reporters are not part of them.
UniProt P18848: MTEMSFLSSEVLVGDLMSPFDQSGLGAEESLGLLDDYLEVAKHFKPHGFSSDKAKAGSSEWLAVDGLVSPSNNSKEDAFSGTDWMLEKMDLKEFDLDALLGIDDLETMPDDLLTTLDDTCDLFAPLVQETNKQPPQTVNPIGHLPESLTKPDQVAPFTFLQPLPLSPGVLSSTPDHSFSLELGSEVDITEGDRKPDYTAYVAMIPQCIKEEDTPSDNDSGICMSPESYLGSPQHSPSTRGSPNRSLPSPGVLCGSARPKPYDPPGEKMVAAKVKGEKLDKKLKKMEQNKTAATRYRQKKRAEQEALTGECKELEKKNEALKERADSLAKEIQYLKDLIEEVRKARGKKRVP
UniProt Q14974: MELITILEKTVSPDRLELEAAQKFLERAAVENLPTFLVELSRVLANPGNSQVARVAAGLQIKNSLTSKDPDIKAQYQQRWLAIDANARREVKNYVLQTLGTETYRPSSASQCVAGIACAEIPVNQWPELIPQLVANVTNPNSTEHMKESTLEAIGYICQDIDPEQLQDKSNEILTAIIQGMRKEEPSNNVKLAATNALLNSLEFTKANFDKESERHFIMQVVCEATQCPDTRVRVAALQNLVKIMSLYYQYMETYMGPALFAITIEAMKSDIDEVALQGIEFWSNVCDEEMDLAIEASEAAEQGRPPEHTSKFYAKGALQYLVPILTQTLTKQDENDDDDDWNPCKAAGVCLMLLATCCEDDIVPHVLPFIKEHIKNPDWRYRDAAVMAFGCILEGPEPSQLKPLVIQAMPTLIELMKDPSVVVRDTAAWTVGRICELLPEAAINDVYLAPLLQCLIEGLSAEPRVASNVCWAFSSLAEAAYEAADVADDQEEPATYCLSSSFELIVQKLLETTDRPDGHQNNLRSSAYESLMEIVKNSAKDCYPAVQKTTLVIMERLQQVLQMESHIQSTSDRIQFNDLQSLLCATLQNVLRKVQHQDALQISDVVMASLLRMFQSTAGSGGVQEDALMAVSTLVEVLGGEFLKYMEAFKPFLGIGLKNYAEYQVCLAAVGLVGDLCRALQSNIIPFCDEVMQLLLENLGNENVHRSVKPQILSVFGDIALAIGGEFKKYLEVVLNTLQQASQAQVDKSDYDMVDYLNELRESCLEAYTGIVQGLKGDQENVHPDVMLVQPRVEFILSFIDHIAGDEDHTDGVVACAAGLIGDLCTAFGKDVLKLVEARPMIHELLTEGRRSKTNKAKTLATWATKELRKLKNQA

Target: Activating transcription factor 4 (human (endogenous in DPSCs)) (UniProt P18848)
Assay: affinity purification with mass spectrometry; ATF4 IP from 1 mg DPSC lysate (OM for 3 days compared with control medium), primary antibody or isotype IgG overnight at 4 °C, Pierce Classic Magnetic IP/Co-IP kit, LC-MS/MS

binding: binds
Substance: Importin subunit beta-1 (from UniProt Q14974 1-876)

No constants are given. Whether binding was seen depends on the method and setting. Binding seen in cells or lysates may run through a third protein. These calls come from enrichment with a bait or labelling near it, and not all partners need be listed.
